In the test the target is FcεR1γ-FLAG (mouse) (UniProt P20491). Kind of test: affinity purification with mass spectrometry; anti-FLAG antibodies and Protein A/G magnetic beads on lysate of GFP+ RAW 264.7 cells lentivirally expressing FcεR1γ-FLAG (empty virus as control); lysis 50 mM Tris-HCl pH 7.4, 150 mM NaCl, 1% Triton X-100, 5 mM EDTA; wash with 500 mM NaCl, 0.1% Triton X-100; 4 °C; Orbitrap Exploris 480, MaxQuant LFQ.

By UniProt entry, the sequences of proteins in these tests, tags left out. Residues count along the entry.
UniProt P20491, residues 19-86: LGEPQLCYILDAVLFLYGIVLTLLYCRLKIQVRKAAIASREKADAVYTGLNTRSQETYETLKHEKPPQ

These are yes or no findings as the source states them, for the method shown. In cells and extracts the contact can be indirect. A yes stands for co-enrichment or nearness to the bait. Other partners may have been found.

B1: IPO4 (protein, UniProt Q8VI75 1-1082)
chain: MEPAGLEQILKELLLPDTERIRRATEQLQTILRDPAALPALFDLLATATDSQIRQFAAVLTRRRLNNRWRRLAPEQRESLKSLVLTALQKETVHSVSVSLAQLSATIFRKEGLQGWPQFMNLLQHSTHSSHSPEKEVGLLLLSVVVSSQPEAFHAHQHELLQLLNETLSDVSFPGVLFYSLRTLTAIARYVRPDDVSLARMLVPKVVTALRTLIPLDEVKACEALEALDEMLETELPIINPHLSEVLTFCLEVAKNVALGEPLRVRVLCCLTFLVKVKSKALLKNRLVPPLLHALFPLMAAEPPMGQLDPEDQDSDDDDLEIGLMGETPKHFAVQVVDMLALHLPPEKLCPHVMPMLEEALRSEDPYQRKAGFLVLAVLSDGAGDHIRQRLLYPLLQIVCKGLDDPSQIVRNAALFALGQFSENLQPHISSYSEEVMPLLLSYLKSVPMGNTHHLAKACYALENFVENLGPKVQPYLPELMECMLQPLKNPSKARTKELAVSAIGAIATAAQDSLLPYFPTIMDLLREFLLTGHEDFHLVQIQSLETLGVLARALGESMKPLAEECCQLGLGLCIHIDDPDVRRCTYSLFAALSGLMGEGLGPYLPQITTLMLLSLRSTEGIVPQYDGISSFLLFDDDSEAEEEEELMDEDMEEEGDDSEISGYSVENAFFDEKEDTCTALGEISMNTCVAFLPFMDATFDEVYKLLECPHMNVRKSAYEALGQFCCALHKASQRSSSDPSSSPVLQTSLARVMPAYMQAVKVERERPVVMAVLESLTGVLRTCGSLALQPPGRLSELCNVLKAVLQKKTACQDAEEDDDEDDDQAEYDAMLLEHAGEAIPVLAATAGGHAFAPFFATFLPLLLCKTKQSCTVAEKSFAVGTLAESIQGLGTASAQFVSRLFPVLLNNAREADPEVRSNAIFGLGVLAEHGGCPAQDHFPKLLGLLLPLLARERHDRVRDNICGALARVLMASPVGKTEPQVLATLLRALPLKEDMEEWLTIGHLFSFLHQNNPEQVVDVASELLRICSLILPDNRIPPDTKAALLLLLTFLAKQHTDSFHTALGSLPNDKAQELQAMMGLT
Turning to B1, the binding entry is “binds”.

The values above are taken from paper PMC11252441.
